This note sets out measurements from publication PMC4046148.

By UniProt entry, the sequences of proteins in these tests, tags left out.
UniProt Q00987: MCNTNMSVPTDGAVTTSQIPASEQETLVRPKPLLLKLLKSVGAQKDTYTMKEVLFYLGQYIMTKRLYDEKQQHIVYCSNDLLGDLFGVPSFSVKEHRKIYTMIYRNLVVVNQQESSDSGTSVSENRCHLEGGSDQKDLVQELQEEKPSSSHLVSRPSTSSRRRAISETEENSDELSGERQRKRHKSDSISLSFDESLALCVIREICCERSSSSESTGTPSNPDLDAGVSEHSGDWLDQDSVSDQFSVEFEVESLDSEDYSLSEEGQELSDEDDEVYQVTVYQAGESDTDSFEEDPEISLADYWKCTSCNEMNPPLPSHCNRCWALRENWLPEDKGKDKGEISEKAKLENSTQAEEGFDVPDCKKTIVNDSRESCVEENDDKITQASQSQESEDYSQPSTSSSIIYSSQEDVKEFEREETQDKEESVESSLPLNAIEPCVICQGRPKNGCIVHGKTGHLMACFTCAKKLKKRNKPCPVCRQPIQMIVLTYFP

These are yes or no findings as the source states them, for the method shown. In cells and extracts the contact can be indirect. Some results given as binding are weak or reduced against the parent protein; the word gives no strength.

The assay deals with MDM2 (human (endogenous in HepG2/As and SMMC7721/As)) (UniProt Q00987). Put plainly: co-IP; endogenous proteins of arsenic trioxide resistant HCC cells, untreated or treated with 2 μM arsenic trioxide for 24 h; immunoprecipitated with an anti-MDM2 antibody, immunoblotted with anti-MDM2 and anti-p73 antibodies. A general note: In western blotting, separated proteins are transferred to a membrane and probed.

B1: p73 (protein, UniProt O15350 1-636)
chain: MAQSTATSPDGGTTFEHLWSSLEPDSTYFDLPQSSRGNNEVVGGTDSSMDVFHLEGMTTSVMAQFNLLSSTMDQMSSRAASASPYTPEHAASVPTHSPYAQPSSTFDTMSPAPVIPSNTDYPGPHHFEVTFQQSSTAKSATWTYSPLLKKLYCQIAKTCPIQIKVSTPPPPGTAIRAMPVYKKAEHVTDVVKRCPNHELGRDFNEGQSAPASHLIRVEGNNLSQYVDDPVTGRQSVVVPYEPPQVGTEFTTILYNFMCNSSCVGGMNRRPILIIITLEMRDGQVLGRRSFEGRICACPGRDRKADEDHYREQQALNESSAKNGAASKRAFKQSPPAVPALGAGVKKRRHGDEDTYYLQVRGRENFEILMKLKESLELMELVPQPLVDSYRQQQQLLQRPSHLQPPSYGPVLSPMNKVHGGMNKLPSVNQLVGQPPPHSSAATPNLGPVGPGMLNNHGHAVPANGEMSSSHSAQSMVSGSHCTPPPPYHADPSLVSFLTGLGCPNCIEYFTSQGLQSIYHLQNLTIEDLGALKIPEQYRMTIWRGLQDLKQGHDYSTAQQLLRSSNAATISIGGSGELQRQRVMEAVHFRVRHTITIPNRGGPGGGPDEWADFGFDLPDCKARKQPIKEEFTEAEIH
For B1, the binding entry is “binds”.
